Results: article PMC12098592
No constants are given. Whether binding was seen depends on the method and setting. In cells and extracts the contact can be indirect. Some entries that bind do so weakly or less than the wild type. Sequences can lack the tags named with a protein.

Chains of the proteins cited; added tags and fusions are not shown.
UniProt P25490: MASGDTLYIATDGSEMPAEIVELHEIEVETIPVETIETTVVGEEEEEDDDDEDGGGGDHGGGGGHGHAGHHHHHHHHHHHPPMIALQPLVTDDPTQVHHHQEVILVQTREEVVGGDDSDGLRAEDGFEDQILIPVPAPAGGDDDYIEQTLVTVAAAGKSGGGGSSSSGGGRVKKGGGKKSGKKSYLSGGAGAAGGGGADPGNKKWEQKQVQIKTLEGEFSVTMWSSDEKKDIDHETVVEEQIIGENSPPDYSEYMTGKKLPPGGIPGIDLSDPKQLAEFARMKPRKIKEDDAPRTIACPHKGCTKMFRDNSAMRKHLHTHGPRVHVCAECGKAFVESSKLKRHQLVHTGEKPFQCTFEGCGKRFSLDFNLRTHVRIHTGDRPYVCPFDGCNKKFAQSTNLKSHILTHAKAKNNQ

Molecular target: T1, wild-type p53-induced phosphatase 1 (Wip1), myc-tagged (UniProt O15297)
T1 sequence: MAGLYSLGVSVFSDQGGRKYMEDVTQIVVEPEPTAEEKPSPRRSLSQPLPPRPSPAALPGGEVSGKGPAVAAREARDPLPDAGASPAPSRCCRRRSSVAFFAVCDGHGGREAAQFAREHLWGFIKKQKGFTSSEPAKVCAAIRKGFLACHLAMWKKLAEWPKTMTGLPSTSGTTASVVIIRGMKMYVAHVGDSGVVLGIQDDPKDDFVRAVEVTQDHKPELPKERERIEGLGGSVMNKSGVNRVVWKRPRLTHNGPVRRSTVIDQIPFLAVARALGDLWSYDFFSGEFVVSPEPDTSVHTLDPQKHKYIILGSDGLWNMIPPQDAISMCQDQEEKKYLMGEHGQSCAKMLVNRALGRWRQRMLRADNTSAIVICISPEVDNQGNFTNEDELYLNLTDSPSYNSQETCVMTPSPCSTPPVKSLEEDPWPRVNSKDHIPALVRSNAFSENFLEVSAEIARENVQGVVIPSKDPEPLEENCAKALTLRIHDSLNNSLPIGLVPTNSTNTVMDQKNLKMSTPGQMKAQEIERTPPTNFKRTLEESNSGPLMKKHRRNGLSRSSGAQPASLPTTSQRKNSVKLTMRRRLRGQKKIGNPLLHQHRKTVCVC
Test: co-IP; HEK293T cells transfected with myc-tagged Wip1 with or without YY1 constructs for 24 hr, treated with 25 μM CCT007093 for 1 hr; lysates immunoprecipitated with anti-Wip1 or anti-YY1 Abs and protein G-sepharose beads overnight at 4°C, then immunoblotting

Ying Yang 1 (YY1) (from UniProt P25490 1-414)
binding: binds
